Compound in the experiment: Nc1ncnc2c1ncn2[C@@H]1O[C@H](COP(=O)(O)OP(=O)(O)OP(=O)(O)O)[C@@H](O)[C@H]1O [adenosine triphosphate]
Briefly: NP40-soluble protein abundance relative to vehicle (solubility fold change) (ratio); higher = more soluble protein in presence of ATP. The gist of the method: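 Jurkat crude lysate (Dounce-homogenised) was treated with eight concentrations from 0.1 to 10 mM for 10 min at room temperature, then 3 min at 37 °C. It was solubilised with 0.8% NP40 and benzonase (60 min, 4 °C) and ultracentrifuged, and the supernatant was TMT-labelled for LC-MS/MS. Intensities were vsn-normalised, and the value is the fold change against the NP40-processed vehicle per replicate, from three independent experiments.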

Chains of the proteins cited; added tags and fusions are not shown. Lines headed by an entry give the natural chain unless they say otherwise; changes in a name come on top.
UniProt Q9NSI2: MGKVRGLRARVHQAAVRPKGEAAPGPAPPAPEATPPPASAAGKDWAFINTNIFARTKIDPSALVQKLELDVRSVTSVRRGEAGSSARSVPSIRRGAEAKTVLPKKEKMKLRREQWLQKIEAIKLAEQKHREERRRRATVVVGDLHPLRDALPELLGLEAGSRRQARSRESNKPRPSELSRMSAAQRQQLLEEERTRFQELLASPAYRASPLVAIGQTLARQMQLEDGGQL
UniProt Q9NX47: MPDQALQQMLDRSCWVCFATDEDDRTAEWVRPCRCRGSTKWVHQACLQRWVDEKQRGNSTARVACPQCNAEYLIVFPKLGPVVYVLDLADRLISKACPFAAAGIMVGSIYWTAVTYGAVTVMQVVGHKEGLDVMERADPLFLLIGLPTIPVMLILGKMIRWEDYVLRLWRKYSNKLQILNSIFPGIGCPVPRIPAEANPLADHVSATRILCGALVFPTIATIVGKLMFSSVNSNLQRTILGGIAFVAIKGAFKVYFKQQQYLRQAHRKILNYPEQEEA
UniProt Q9NZI8, whole entry: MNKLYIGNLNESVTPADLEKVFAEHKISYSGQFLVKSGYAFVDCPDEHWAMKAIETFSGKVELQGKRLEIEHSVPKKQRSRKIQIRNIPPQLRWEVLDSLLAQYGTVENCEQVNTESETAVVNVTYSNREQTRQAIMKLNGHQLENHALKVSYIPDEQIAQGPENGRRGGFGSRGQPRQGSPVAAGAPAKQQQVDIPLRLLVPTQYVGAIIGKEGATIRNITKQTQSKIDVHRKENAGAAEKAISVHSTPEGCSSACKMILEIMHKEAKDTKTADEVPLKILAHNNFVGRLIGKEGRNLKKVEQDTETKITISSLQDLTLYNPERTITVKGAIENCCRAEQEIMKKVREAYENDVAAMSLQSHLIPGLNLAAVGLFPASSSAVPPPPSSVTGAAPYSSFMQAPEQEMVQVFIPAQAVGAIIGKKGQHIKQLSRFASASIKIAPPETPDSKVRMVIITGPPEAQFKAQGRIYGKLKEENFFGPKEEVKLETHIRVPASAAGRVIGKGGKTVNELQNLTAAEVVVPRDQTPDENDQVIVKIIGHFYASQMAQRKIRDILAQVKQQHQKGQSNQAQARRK
UniProt Q9NUA8: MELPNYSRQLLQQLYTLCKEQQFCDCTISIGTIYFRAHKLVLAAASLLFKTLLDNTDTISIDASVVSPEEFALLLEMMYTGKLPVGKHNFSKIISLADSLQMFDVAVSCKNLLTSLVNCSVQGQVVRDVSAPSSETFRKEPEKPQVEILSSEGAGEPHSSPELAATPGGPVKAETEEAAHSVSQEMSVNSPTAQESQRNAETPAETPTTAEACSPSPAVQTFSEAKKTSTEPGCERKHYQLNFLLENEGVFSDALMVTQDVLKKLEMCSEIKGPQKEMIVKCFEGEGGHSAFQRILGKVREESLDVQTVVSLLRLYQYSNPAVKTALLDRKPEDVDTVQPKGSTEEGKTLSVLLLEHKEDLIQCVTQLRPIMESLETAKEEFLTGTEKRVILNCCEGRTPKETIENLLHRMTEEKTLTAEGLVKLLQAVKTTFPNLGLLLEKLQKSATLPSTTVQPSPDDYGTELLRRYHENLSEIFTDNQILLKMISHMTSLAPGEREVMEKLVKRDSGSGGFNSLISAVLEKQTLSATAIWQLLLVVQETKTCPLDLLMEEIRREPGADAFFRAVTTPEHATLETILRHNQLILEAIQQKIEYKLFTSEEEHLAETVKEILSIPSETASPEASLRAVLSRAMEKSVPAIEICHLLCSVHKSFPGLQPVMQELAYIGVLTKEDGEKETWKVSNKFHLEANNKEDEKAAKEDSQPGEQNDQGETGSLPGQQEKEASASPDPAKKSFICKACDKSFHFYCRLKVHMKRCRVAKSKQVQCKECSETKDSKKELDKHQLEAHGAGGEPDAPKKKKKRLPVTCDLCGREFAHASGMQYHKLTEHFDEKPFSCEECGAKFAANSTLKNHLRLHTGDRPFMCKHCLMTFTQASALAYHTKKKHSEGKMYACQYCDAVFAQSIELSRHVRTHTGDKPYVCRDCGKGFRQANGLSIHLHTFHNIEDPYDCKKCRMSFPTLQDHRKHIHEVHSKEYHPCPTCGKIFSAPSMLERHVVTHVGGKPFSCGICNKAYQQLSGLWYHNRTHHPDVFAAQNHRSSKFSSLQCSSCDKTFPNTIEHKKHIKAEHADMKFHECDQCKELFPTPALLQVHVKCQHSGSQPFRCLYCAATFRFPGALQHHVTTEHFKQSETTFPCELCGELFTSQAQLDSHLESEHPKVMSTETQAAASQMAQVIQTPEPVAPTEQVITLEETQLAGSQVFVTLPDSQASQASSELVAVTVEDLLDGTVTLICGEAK
UniProt Q9NQZ6: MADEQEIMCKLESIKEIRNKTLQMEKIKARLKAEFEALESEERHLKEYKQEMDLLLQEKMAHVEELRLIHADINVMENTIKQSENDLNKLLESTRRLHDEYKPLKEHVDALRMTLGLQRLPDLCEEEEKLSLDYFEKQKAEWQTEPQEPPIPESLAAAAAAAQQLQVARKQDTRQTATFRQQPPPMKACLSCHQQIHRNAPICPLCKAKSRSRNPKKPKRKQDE
UniProt Q9NRA8: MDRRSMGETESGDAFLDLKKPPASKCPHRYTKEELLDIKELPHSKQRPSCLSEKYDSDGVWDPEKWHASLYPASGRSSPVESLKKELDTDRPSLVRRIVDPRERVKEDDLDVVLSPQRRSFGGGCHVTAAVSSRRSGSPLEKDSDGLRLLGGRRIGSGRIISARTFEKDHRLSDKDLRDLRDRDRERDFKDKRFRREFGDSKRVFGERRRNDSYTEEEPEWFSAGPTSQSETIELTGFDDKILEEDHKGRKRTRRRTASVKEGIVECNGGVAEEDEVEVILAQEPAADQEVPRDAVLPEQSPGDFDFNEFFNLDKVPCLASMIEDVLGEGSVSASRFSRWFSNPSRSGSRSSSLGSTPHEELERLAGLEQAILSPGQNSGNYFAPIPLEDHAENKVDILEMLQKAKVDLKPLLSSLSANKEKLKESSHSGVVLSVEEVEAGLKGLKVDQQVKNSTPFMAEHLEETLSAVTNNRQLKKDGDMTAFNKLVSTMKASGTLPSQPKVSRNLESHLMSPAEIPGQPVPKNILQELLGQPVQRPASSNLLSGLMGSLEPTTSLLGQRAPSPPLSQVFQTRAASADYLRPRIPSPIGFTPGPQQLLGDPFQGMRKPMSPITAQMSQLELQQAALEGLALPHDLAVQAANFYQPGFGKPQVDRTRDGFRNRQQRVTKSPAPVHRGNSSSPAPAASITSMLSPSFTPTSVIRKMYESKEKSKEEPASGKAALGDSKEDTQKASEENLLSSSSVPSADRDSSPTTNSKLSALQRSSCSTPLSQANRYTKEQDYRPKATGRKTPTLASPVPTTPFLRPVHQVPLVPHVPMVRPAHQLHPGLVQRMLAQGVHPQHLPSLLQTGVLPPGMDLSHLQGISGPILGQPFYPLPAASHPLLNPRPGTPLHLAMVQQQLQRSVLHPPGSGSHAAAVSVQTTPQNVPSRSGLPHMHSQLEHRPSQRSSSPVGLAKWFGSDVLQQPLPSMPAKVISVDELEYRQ
UniProt Q9NW08: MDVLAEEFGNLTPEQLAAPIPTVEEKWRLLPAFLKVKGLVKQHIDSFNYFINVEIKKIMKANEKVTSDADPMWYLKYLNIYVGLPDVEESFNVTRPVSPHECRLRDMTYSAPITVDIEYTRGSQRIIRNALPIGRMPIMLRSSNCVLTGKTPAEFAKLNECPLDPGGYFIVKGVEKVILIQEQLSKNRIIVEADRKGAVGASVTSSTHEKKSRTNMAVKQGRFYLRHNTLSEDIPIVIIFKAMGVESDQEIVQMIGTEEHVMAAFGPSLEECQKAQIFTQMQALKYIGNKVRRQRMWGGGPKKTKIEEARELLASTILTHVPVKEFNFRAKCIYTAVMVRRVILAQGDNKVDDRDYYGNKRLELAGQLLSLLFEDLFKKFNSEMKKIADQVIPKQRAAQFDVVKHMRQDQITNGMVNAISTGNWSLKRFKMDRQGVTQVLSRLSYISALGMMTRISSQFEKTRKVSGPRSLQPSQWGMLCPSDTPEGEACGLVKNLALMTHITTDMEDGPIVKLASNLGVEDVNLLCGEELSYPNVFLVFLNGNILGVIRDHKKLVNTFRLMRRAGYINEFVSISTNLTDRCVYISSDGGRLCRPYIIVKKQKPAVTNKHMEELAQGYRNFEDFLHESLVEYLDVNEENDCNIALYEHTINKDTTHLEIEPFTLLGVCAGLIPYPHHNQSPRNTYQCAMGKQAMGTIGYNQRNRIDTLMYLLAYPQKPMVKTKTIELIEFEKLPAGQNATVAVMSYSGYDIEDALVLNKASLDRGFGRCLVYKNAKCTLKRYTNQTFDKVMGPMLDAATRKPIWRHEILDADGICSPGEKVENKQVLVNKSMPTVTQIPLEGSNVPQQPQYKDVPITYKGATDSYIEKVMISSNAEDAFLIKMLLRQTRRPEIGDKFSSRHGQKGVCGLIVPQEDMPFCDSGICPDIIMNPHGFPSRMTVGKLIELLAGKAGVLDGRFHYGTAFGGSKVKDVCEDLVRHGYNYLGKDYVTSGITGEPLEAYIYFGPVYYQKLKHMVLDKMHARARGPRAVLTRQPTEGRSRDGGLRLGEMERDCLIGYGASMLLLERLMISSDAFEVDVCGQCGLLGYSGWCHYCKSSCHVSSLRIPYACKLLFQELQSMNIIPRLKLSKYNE
UniProt Q9NW81: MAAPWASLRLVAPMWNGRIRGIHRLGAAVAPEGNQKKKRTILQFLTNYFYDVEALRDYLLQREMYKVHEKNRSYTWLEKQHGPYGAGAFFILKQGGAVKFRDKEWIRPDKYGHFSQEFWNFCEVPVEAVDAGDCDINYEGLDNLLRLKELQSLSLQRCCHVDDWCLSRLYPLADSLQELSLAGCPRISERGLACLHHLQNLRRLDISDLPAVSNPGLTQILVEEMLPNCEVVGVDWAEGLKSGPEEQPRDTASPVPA
UniProt Q9NVM9, whole entry: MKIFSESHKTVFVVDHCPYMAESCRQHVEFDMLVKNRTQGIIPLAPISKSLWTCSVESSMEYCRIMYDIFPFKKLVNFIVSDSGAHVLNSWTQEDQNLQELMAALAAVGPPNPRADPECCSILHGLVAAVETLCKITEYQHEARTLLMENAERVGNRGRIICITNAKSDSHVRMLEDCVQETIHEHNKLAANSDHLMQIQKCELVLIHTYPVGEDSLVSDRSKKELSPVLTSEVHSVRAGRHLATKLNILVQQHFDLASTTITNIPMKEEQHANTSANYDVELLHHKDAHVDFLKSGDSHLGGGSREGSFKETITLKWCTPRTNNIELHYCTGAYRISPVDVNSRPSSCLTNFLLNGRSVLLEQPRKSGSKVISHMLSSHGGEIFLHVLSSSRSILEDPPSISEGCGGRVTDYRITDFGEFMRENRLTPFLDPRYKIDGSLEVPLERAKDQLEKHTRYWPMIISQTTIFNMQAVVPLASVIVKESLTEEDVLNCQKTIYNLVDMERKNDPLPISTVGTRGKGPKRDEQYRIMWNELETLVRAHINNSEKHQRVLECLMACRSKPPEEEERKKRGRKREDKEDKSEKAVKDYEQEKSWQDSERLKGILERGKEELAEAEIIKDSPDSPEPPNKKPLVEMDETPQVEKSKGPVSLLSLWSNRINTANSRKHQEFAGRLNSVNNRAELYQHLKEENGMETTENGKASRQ
UniProt Q9NXV2: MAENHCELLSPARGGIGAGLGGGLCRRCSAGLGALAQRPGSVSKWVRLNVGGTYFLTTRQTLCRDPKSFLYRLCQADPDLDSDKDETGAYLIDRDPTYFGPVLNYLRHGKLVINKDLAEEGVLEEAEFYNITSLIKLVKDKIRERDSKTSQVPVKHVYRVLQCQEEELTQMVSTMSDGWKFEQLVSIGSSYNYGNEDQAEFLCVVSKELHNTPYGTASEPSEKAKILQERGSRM
UniProt Q9NZN8, whole entry: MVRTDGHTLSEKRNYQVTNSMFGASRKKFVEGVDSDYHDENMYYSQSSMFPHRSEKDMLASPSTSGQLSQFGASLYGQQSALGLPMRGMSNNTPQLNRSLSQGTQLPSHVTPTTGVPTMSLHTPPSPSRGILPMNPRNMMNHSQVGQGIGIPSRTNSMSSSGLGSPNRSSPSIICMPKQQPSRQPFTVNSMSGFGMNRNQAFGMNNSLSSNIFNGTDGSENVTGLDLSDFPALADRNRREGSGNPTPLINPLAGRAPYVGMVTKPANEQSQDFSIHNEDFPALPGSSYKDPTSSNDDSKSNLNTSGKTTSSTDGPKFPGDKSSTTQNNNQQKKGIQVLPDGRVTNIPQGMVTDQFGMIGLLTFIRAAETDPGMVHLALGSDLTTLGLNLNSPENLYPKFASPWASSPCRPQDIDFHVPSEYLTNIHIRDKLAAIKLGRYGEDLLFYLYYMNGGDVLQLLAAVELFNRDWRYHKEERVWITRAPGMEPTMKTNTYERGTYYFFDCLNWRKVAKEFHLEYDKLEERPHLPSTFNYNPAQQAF
UniProt Q9NPJ3: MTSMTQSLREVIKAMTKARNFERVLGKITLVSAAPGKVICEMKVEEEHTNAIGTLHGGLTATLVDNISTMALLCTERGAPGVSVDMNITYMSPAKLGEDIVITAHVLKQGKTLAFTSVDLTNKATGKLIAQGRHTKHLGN

± gives the standard deviation of the averaged measurements. The entries are a selection whose mix differs from that of the whole data set. Most entries show no effect beyond the scatter of the controls.

On to UniProt Q9NWV8, for which the NP40-soluble protein abundance (concentration: 0.1mM) worked out at 0.982 ± 0.012 and the NP40-soluble protein abundance (concentration: 0.5mM) amounted to 0.994 ± 0.036.
On the same counts, the results for MRPL15 (UniProt Q9P015) are 0.981 ± 0.15 and 1.06 ± 0.08.
In the case of UniProt Q9NSI2 and related entries, the NP40-soluble protein abundance came out at 0.965 ± 0.061 (concentration: 0.1mM) and 0.93 ± 0.082 (concentration: 0.5mM).
On to UCKL1 (UniProt Q9NWZ5), for which the NP40-soluble protein abundance (concentration: 0.1mM) amounted to 1.03 ± 0.012 and the NP40-soluble protein abundance (concentration: 0.5mM) was determined as 1.01 ± 0.047.
In the same order, the values of UniProt Q9NUI1 and related entries are 0.999 ± 0.023 and 0.95 ± 0.043.
For the target PNO1 (UniProt Q9NRX1), the NP40-soluble protein abundance runs as follows: (concentration: 0.1mM) 0.918 ± 0.099; (concentration: 0.5mM) 1.04 ± 0.044.
In the same order, the values of RTN4 (UniProt Q9NQC3) are 0.966 ± 0.022 and 0.949 ± 0.03.
On the same counts, the results for EXOSC3 (UniProt Q9NQT5) are 1.02 ± 0.057 and 1.09 ± 0.063.
On the same counts, the results for BAZ1A (UniProt Q9NRL2) are 1.05 ± 0.021 and 1.14 ± 0.053.
In the case of RAD18 (UniProt Q9NS91), the NP40-soluble protein abundance is, setting by setting: (concentration: 0.1mM) 1.01 ± 0.028; (concentration: 0.5mM) 1.1 ± 0.026.
On the same counts, the results for UniProt Q9NX47 are 1.03 ± 0.045 and 0.991 ± 0.12.
On to UniProt Q9NXR7, for which the NP40-soluble protein abundance (concentration: 0.1mM) is 1.03 ± 0.076 and the NP40-soluble protein abundance (concentration: 0.5mM) amounted to 0.986 ± 0.054.
In the same order, the values of UniProt Q9NQ11 and related entries are 0.948 ± 0.21 and 0.877 ± 0.11.
As for UniProt Q9NUY8 and related entries, the NP40-soluble protein abundance runs as follows: (concentration: 0.1mM) 1 ± 0.061; (concentration: 0.5mM) 1.01 ± 0.023.
Consider IGF2BP1 (UniProt Q9NZI8), for which the NP40-soluble protein abundance (concentration: 0.1mM) is 1.03 ± 0.031 and the NP40-soluble protein abundance (concentration: 0.5mM) is 1.03 ± 0.038.
For the target RLIM (UniProt Q9NVW2), the NP40-soluble protein abundance by setting is: (concentration: 0.1mM) 1.02 ± 0.17; (concentration: 0.5mM) 0.984 ± 0.13.
In the same order, the values of ZBTB40 (UniProt Q9NUA8) are 1.03 ± 0.042 and 0.995 ± 0.054.
For UniProt Q9NQZ6 and related entries, the NP40-soluble protein abundance runs as follows: (concentration: 0.1mM) 0.87 ± 0.021; (concentration: 0.5mM) 0.943 ± 0.13.
In the same order, the values of UniProt Q9NPA0 are 1 ± 0.043 and 0.996 ± 0.013.
As to UniProt Q9NRA8 and related entries, the NP40-soluble protein abundance is, setting by setting: (concentration: 0.1mM) 0.975 ± 0.062; (concentration: 0.5mM) 1.02 ± 0.069.
On the same counts, the results for FAM120C (UniProt Q9NX05) are 0.988 ± 0.076 and 0.999 ± 0.09.
In the same order, the values of UniProt Q9NQS7 and related entries are 0.996 ± 0.021 and 1.06 ± 0.021.
On the same counts, the results for UniProt Q9NRY4 are 1.02 ± 0.018 and 1.02 ± 0.037.
On to MIOS (UniProt Q9NXC5), for which the NP40-soluble protein abundance (concentration: 0.1mM) worked out at 1.11 ± 0.045 and the NP40-soluble protein abundance (concentration: 0.5mM) came out at 1.07 ± 0.032.
On the same counts, the results for LYAR (UniProt Q9NX58) are 0.945 ± 0.065 and 0.9368 ± 0.0049.
In the case of UTP3 (UniProt Q9NQZ2), the NP40-soluble protein abundance runs as follows: (concentration: 0.1mM) 0.971 ± 0.051; (concentration: 0.5mM) 0.946 ± 0.05.
UniProt Q9NW08 and related entries: the NP40-soluble protein abundance (concentration: 0.1mM) stood at 1.03 ± 0.0066 and the NP40-soluble protein abundance (concentration: 0.5mM) was 1.02 ± 0.036.
For the target TMOD3 (UniProt Q9NYL9), the NP40-soluble protein abundance by setting is: (concentration: 0.1mM) 0.957 ± 0.07; (concentration: 0.5mM) 0.957 ± 0.036.
As for UniProt Q9NW81 and related entries, the NP40-soluble protein abundance by setting is: (concentration: 0.1mM) 0.997 ± 0.049; (concentration: 0.5mM) 1.004 ± 0.0068.
On the same counts, the results for UniProt Q9NZT2 and related entries are 0.9904 ± 0.0072 and 0.9528 ± 0.0077.
On the same counts, the results for UniProt Q9NVM9 are 1.02 ± 0.026 and 1.04 ± 0.07.
Regarding UniProt Q9NZL9 and related entries, the NP40-soluble protein abundance by setting is: (concentration: 0.1mM) 1.01 ± 0.049; (concentration: 0.5mM) 1.02 ± 0.045.
On the same counts, the results for KCTD5 (UniProt Q9NXV2) are 0.98 ± 0.074 and 0.969 ± 0.11.
On the same counts, the results for CNOT2 (UniProt Q9NZN8) are 0.993 ± 0.039 and 1.13 ± 0.059.
On the same counts, the results for TMEM30A (UniProt Q9NV96) are 0.889 ± 0.12 and 0.851 ± 0.14.
As to UniProt Q9NVH0 and related entries, the NP40-soluble protein abundance runs as follows: (concentration: 0.1mM) 1.03 ± 0.065; (concentration: 0.5mM) 0.952 ± 0.07.
Turning to UniProt Q9NPJ3, the NP40-soluble protein abundance was found to be 0.983 ± 0.046 (concentration: 0.1mM) and 1.02 ± 0.058 (concentration: 0.5mM).

The record behind these values is the supplement of paper PMC6411743.
